According to article PMC8899572:
These are yes or no findings as the source states them, for the method shown. In cells and extracts the contact can be indirect. For some of these results: A result given as binding can be weak or reduced; the word gives no strength. Values belong to the molecule of their own block, whether it stands above or below them.

Assays:
[1] = biological target: T1, activating transcription 4 (ATF4) (rat (endogenous in H9c2)) (UniProt Q9ES19); test: co-IP; cytoplasmic (cytosolic) lysates (0.5 mg) of H9c2 cells treated with AngII (1 uM) with or without TP (10 ug/L) for 1 h; primary antibody (5 ug) at 4 C overnight, Protein A/G magnetic beads, immunoblot; IP with anti-FoxP3 or with anti-ATF4
T1 sequence: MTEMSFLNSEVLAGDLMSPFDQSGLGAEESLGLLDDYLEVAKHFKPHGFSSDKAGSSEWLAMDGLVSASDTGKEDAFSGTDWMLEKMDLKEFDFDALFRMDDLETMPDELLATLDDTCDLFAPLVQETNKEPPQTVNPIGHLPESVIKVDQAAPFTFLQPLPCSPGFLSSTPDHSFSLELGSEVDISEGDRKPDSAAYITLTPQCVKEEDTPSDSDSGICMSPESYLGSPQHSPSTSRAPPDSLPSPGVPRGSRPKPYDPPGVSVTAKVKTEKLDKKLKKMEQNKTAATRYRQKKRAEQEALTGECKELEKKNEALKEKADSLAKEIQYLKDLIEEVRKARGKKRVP

[2] = biological target: T1, activating transcription 4 (ATF4) (rat (endogenous in H9c2)); test: co-IP; nuclear lysates (0.5 mg) of H9c2 cells treated with AngII (1 uM) with or without TP (10 ug/L) for 1 h; primary antibody (5 ug) at 4 C overnight, Protein A/G magnetic beads, immunoblot; IP with anti-FoxP3 or with anti-ATF4
[3] = biological target: Forkhead/winged helix transcriptional factor P3 (FoxP3) (rat (endogenous in H9c2)); test: co-IP; cytoplasmic (cytosolic) lysates (0.5 mg) of H9c2 cells treated with AngII (1 uM) with or without TP (10 ug/L) for 1 h; primary antibody (5 ug) at 4 C overnight, Protein A/G magnetic beads, immunoblot; IP with anti-FoxP3 or with anti-ATF4
[4] = biological target: Forkhead/winged helix transcriptional factor P3 (FoxP3) (rat (endogenous in H9c2)); test: co-IP; nuclear lysates (0.5 mg) of H9c2 cells treated with AngII (1 uM) with or without TP (10 ug/L) for 1 h; primary antibody (5 ug) at 4 C overnight, Protein A/G magnetic beads, immunoblot; IP with anti-FoxP3 or with anti-ATF4

- binding [1]: no binding (only in cytosolic lysates)
- binding [2]: binds
Molecule: Forkhead/winged helix transcriptional factor P3 (FoxP3) (rat (endogenous in H9c2))

- binding [3]: no binding (only in cytosolic lysates)
- binding [4]: binds
B1: activating transcription 4 (ATF4) (protein, UniProt Q9ES19 1-347)
chain: T1 sequence
